Test results published in publication PMC3446894.
Results are given in words; binding and its absence hold for the method and conditions named. Binding seen in cells or lysates may run through a third protein. Some binding calls cover weakened binding; strength is not graded here.

Biological target: His-tagged CP47 protein of Photosystem II (Synechocystis sp. PCC 6803, strain HT3) (Synechocystis sp. PCC 6803), P05429
Test: pull-down; PSII with His-tagged CP47 purified from Synechocystis 6803 HT3 cells on a Ni-NTA column (washes with 15 and 35 mM imidazole, elution with 100 mM imidazole in buffer A, pH 6.0, 0.04% dodecyl maltoside); the eluted fraction analysed by SDS-PAGE and immunoblot
Settings: remark: other sources report otherwise

binding: binds
B1: PsbO, extrinsic protein of the PSII oxygen-evolving complex (Synechocystis sp. PCC 6803), P10549 29-274 (protein)
chain: VDKSQLTYDDIVNTGLANVCPEISSFTRGTIEVEPNTKYFVSDFCMEPQEYFVKEEPVNKRQKAEYVKGKVLTRQTTSLEQIRGSIAVGADGTLTFKEKDGIDFQPITVLLPGGEEVPFFFTVKNFTGTTEPGFTSINSSTDFVGDFNVPSYRGAGFLDPKARGLYTGYDNAVALPSAADKFRTNKKETPLGKGTLSLQVTQVDGSTGEIAGIFESEQPSDTDLGAKEPLDVKVRGIFYGRVDTDV
